Source: PubChem BioAssay AID256 (DTP/NCI, 2004)
The list does not hold the whole screen: it is rich in T/C values a quarter to a half above the control, in often repeated tests (any T/C) and in doses without a T/C. Further doses and runs are listed elsewhere. T/C gives the treated animals as a percentage of the vehicle group. Some doses have a count of surviving animals in place of a T/C: the source files T/C as zero there, which appears to mark a toxic dose or a test without result, not a measured value. Some doses without a T/C left all or most animals alive at the check, yet need not have been tolerated: survival well below the control is almost never listed, so the zero probably covers shortened survival too. Counts of survivors are from the toxicity check (mostly the fifth day) where no day follows; animals may have died later. Schedules are NCI's codes, taken here to give the interval after Q, in days (D) or hours (H), and the number of doses after X. Some molecules as drawn cover several salts, stereoisomers or complexes of the source; a dose is that of the sample tested. Some entries hold several experiments; their values stand side by side, smallest first. For survival time, this PubChem deposit counts one and a half times the control or more as active, and values a quarter to a half above the control carry no call in these data; other NCI protocols may use other cut-offs. Additions like (4×) stand for listed records that agree.

Test system: CD2F1 mice, L1210 leukemia ip, survival T/C
Assay: NCI In Vivo Anticancer Drug Screen. Data for tumor model L1210 Leukemia (intraperitoneal) in CD2F1 (CDF1) mice
Conditions: higher T/C = longer survival
In short: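 Read-out first: treated-group measurement over vehicle-control measurement, expressed as a ratio. Animals bore a transplanted tumor line and were dosed with compound or vehicle.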

[1] = T/C endpoint: mean survival time, dose: 25.0 mg/kg/injection, schedule: Q01DX009 (ip), vehicle: saline with Tween-80
[2] = T/C endpoint: mean survival time, dose: 100.0 mg/kg/injection, schedule: Q01DX009 (ip), vehicle: saline with Tween-80
[3] = T/C endpoint: mean survival time, dose: 200.0 mg/kg/injection, schedule: Q01DX009 (ip), vehicle: saline with Tween-80
[4] = T/C endpoint: mean survival time, dose: 400.0 mg/kg/injection, schedule: Q01DX009 (ip), vehicle: saline with Tween-80
[5] = T/C endpoint: mean survival time, dose: 100.0 mg/kg/injection, schedule: Q04DX003 (ip), vehicle: saline with Tween-80
[6] = T/C endpoint: mean survival time, dose: 200.0 mg/kg/injection, schedule: Q04DX003 (ip), vehicle: saline with Tween-80
[7] = T/C endpoint: mean survival time, dose: 400.0 mg/kg/injection, schedule: Q04DX003 (ip), vehicle: saline with Tween-80
[8] = T/C endpoint: mean survival time, dose: 200.0 mg/kg/injection, schedule: Q01DX009 (ip), vehicle: saline

C=C1N(C)c2ccccc2C1(C)C
survivor count [1]: 2 of 6 | survivor count [2]: 5 of 6 | survivor count [3]: 0 of 6 | survivor count [4]: 0 of 6

COC(=O)c1cccc2c1ccc1ccccc12
survivor count (T/C endpoint: mean survival time, dose: 300.0 mg/kg/injection, schedule: Q01DX001 (ip), vehicle: saline): 0 of 6

Cc1ccc(S(=O)(=O)N/N=C2/CC3CCC(C)(C2)C3)cc1 (stereo not given)
survivor count [5]: 6 of 6 | survivor count [6]: 6 of 6

Cc1cc2sccc2cn1
survivor count [6]: 0 of 6 | survivor count [7]: 0 of 6

COc1ccc(NC(=O)Nc2cc(Cl)ccc2Cl)cc1
survivor count [2]: 6 of 6

CCN(CC)Cc1cc2[nH]c3c4ccc(Cl)cc4ncc3c2cc1OC
survivor count (T/C endpoint: median survival time, dose: 100.0 mg/kg/injection, schedule: Q01DX009 (ip), vehicle: saline with Tween-80): 1 of 6

CC(=O)Oc1cc(OC(C)=O)c2c(OC(C)=O)c3c(OC(C)=O)cc(C)cc3cc2c1
survivor count (T/C endpoint: mean survival time, dose: 100.0 mg/kg/injection, schedule: Q01DX001 (ip), vehicle: saline): 0 of 6 | survivor count (T/C endpoint: mean survival time, dose: 200.0 mg/kg/injection, schedule: Q01DX001 (ip), vehicle: saline): 0 of 6 | survivor count (T/C endpoint: mean survival time, dose: 400.0 mg/kg/injection, schedule: Q01DX001 (ip), vehicle: saline): 0 of 6

c1ccc(NC2=NCCO2)nc1
survivor count (T/C endpoint: mean survival time, dose: 400.0 mg/kg/injection, schedule: Q01DX001 (ip), vehicle: saline with Tween-80): 3 of 6

CCCCCCC(=O)CCCCCC/C=C/CC(O)C(O)C(N)(CO)C(=O)O (stereo not given)
survivor count (T/C endpoint: mean survival time, dose: 25.0 mg/kg/injection, schedule: Q04DX002 (ip), vehicle: saline with Tween-80): 1 of 3 | survivor count (T/C endpoint: mean survival time, dose: 50.0 mg/kg/injection, schedule: Q04DX002 (ip), vehicle: saline with Tween-80): 0 of 3

O=C(CCl)OCC(Cl)Cl
survivor count [4]: 0 of 6

CC(=O)c1ccc(N=NC2C(=O)N(c3ccccc3)N=C2C)cc1 (stereo not given)
survivor count [2]: 6 of 6

COc1cc2cc3c4cc(OC)c(OC)cc4cc[n+]3c(C)c2cc1OC
T/C (T/C endpoint: mean survival time, dose: 67.0 mg/kg/injection, schedule: Q04DX003 (ip), vehicle: saline): 125 % of control | T/C [5]: 134 % of control (2×) | T/C (T/C endpoint: mean survival time, dose: 100.0 mg/kg/injection, schedule: Q04DX003 (ip), vehicle: saline): 125 and 131 % of control | T/C (T/C endpoint: mean survival time, dose: 150.0 mg/kg/injection, schedule: Q04DX003 (ip), vehicle: saline): 131 % of control | T/C [6]: 136 % of control (2×) | T/C [7]: 139 % of control (2×)

C/C(=N/NC(=O)c1ccccc1)c1cccc(O)c1
survivor count [3]: 6 of 6

CCCCCCCCCC[n+]1ccc(C#N)cc1
survivor count (T/C endpoint: mean survival time, dose: 37.5 mg/kg/injection, schedule: Q01DX001 (ip), vehicle: saline): 0 of 6

C=C1CC2(OC1=O)C(=O)N(C)c1ccc(I)cc12 (stereo not given)
survivor count (T/C endpoint: mean survival time, dose: 50.0 mg/kg/injection, schedule: Q01DX009 (ip), vehicle: saline): 3 of 6 | survivor count (T/C endpoint: mean survival time, dose: 100.0 mg/kg/injection, schedule: Q01DX009 (ip), vehicle: saline): 1 of 6 and 2 of 6 | survivor count [8]: 0 of 6 and 1 of 6

c1cc2c(c(OCC3=NCCN3)c1)CCCC2
survivor count (T/C endpoint: mean survival time, dose: 100.0 mg/kg/injection, schedule: Q04DX002 (ip), vehicle: saline): 0 of 3

CC1=CCS(=O)(=O)C1
survivor count [8]: 0 of 6

Cn1c2nc3ccccc3c-2nc2ccccc21
survivor count (T/C endpoint: mean survival time, dose: 50.0 mg/kg/injection, schedule: Q01DX009 (ip), vehicle: water): 6 of 6 | survivor count (T/C endpoint: mean survival time, dose: 100.0 mg/kg/injection, schedule: Q01DX009 (ip), vehicle: water): 6 of 6 | survivor count (T/C endpoint: mean survival time, dose: 200.0 mg/kg/injection, schedule: Q01DX009 (ip), vehicle: water): 5 of 6 | survivor count (T/C endpoint: mean survival time, dose: 400.0 mg/kg/injection, schedule: Q01DX009 (ip), vehicle: Klucel (hydroxypropylcellulose) (HPC)): 1 of 6 | survivor count (T/C endpoint: mean survival time, dose: 400.0 mg/kg/injection, schedule: Q01DX009 (ip), vehicle: water): 0 of 6

O=C(Sc1ccc([N+](=O)[O-])cc1)C(=O)Sc1ccc([N+](=O)[O-])cc1
survivor count [1]: 3 of 3

CCNc1nc(Cl)nc(NC(C)C)n1
survivor count [4]: 1 of 6

N.N.N.N.N.N#CN=C(N)N.[Co+3].[O-][Cl+3]([O-])([O-])[O-]
survivor count (T/C endpoint: mean survival time, dose: 200.0 mg/kg/injection, schedule: Q04DX002 (ip), vehicle: saline): 0 of 3
